The assay addresses T1, Flag-CNTNAP2-ecto (ectodomain of CNTNAP2) (human) (UniProt Q9UHC6).
T1 sequence: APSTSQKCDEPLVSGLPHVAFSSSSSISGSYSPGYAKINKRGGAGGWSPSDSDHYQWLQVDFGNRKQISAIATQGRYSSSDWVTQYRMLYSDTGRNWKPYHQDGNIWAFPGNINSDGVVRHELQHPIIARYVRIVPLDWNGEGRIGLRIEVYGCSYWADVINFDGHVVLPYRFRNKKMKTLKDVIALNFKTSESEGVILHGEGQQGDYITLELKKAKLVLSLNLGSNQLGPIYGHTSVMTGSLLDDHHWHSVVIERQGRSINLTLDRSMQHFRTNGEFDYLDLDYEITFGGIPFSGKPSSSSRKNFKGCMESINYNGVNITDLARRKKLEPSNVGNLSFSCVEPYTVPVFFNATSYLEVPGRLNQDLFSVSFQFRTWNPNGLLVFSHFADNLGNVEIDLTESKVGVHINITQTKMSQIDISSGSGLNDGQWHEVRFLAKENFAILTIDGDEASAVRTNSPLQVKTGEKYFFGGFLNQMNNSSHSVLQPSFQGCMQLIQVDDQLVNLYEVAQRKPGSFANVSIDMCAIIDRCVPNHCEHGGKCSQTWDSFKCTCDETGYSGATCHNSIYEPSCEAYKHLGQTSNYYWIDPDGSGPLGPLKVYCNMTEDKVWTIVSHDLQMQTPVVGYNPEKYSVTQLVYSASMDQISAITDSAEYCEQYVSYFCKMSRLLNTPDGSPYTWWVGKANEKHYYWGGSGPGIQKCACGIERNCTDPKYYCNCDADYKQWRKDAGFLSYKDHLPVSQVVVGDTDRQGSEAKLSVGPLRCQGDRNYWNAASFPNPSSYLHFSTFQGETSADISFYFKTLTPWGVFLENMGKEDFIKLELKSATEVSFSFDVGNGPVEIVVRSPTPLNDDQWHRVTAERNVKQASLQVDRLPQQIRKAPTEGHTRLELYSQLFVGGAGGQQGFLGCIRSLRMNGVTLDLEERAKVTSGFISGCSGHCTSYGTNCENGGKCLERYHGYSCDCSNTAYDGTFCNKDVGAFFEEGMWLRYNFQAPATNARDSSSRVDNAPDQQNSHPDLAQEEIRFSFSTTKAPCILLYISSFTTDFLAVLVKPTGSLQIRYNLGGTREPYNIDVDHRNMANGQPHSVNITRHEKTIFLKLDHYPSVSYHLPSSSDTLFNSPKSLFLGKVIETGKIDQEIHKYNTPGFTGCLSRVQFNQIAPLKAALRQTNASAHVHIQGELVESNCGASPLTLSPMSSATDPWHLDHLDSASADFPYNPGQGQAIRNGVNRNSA
The assay is described as follows: affinity purification with mass spectrometry.

The chains behind the UniProt entries cited, without tags or fusion partners.
UniProt Q9R0K7: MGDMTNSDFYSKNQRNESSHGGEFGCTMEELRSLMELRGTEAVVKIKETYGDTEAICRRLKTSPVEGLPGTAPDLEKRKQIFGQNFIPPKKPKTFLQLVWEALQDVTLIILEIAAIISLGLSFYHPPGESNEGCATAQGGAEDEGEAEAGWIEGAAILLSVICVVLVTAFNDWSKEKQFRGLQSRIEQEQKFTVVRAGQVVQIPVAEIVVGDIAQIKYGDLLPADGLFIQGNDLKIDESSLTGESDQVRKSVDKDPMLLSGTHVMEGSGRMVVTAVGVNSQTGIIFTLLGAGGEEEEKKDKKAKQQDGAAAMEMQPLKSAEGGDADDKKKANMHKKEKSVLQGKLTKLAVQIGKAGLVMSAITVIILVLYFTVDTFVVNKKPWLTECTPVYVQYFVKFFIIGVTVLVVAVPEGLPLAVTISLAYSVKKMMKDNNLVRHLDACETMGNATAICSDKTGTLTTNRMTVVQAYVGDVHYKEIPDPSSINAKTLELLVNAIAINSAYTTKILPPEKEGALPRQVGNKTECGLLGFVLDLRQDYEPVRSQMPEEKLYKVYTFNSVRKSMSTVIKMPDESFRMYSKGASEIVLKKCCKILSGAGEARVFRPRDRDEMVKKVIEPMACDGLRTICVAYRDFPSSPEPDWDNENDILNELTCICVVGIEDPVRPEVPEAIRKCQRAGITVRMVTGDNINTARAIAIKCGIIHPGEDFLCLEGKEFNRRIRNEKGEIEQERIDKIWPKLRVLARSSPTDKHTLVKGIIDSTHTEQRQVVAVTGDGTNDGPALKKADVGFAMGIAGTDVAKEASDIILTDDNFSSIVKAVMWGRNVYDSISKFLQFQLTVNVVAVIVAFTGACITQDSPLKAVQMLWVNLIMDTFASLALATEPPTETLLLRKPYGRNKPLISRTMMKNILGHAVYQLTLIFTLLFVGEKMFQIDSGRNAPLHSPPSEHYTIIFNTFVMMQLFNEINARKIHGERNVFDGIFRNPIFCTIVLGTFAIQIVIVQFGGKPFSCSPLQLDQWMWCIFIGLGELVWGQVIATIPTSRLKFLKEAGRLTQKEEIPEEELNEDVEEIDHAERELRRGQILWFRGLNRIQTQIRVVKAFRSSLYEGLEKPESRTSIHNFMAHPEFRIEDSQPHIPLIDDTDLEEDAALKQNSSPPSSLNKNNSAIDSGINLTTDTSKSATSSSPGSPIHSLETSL
UniProt G5E829: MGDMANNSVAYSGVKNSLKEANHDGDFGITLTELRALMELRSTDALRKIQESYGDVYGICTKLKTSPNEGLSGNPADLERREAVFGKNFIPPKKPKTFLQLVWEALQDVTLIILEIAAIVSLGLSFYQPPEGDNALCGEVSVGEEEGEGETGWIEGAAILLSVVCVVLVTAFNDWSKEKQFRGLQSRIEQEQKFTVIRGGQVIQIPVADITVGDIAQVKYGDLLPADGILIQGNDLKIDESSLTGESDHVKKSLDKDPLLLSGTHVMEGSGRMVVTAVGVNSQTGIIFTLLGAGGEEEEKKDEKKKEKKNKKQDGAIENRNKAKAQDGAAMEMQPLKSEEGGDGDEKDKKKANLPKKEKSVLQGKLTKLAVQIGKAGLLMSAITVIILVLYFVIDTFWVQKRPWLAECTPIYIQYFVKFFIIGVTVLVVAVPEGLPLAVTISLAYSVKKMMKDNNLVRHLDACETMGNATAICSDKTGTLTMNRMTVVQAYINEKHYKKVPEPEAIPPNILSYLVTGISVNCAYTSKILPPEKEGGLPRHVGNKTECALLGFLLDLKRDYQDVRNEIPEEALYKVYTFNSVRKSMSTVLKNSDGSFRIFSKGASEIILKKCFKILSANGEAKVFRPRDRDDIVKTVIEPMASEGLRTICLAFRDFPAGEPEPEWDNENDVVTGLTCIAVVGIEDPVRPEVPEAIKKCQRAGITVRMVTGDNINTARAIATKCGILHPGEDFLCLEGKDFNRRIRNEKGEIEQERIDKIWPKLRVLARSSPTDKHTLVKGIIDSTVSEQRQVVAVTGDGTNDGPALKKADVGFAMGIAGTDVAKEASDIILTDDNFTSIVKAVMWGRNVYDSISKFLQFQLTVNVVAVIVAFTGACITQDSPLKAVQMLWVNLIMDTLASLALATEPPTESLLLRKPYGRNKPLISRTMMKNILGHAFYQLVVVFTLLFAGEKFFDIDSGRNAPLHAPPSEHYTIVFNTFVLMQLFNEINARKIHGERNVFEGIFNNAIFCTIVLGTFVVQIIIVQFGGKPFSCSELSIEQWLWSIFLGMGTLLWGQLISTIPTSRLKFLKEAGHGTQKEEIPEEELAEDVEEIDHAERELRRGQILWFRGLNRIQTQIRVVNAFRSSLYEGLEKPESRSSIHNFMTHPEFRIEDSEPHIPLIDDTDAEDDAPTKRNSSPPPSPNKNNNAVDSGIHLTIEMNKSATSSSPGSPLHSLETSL
UniProt Q0VF55: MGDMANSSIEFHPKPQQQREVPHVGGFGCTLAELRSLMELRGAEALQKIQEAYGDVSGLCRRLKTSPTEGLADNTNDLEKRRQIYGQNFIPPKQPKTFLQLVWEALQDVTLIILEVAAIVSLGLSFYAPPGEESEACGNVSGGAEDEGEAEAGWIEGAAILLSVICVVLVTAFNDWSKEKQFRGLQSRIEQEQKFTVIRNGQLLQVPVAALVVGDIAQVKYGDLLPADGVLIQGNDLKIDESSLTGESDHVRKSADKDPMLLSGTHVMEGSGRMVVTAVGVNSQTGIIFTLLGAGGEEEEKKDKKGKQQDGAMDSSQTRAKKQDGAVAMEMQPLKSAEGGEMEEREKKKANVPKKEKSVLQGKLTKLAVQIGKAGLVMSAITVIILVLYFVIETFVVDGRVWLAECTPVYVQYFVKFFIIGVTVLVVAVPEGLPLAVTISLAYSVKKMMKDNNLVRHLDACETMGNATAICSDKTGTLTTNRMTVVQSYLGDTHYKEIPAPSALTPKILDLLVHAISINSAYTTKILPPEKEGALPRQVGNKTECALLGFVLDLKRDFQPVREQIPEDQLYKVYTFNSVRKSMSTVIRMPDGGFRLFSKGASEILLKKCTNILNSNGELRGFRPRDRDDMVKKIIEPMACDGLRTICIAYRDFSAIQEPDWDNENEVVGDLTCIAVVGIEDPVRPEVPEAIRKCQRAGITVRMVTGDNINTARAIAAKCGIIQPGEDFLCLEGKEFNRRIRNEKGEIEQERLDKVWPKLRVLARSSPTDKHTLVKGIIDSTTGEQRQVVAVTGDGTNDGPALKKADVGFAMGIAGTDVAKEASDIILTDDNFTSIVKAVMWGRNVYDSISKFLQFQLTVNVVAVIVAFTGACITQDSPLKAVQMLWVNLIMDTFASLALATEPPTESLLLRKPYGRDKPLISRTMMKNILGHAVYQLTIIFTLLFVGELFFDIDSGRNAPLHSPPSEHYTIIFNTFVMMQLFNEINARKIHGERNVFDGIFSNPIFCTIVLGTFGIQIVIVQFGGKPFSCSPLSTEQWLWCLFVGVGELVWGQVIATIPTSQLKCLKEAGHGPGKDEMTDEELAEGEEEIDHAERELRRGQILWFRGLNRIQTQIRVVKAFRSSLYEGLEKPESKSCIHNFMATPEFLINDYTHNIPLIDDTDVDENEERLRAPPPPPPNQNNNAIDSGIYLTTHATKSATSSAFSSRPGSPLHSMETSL
UniProt Q6Q477: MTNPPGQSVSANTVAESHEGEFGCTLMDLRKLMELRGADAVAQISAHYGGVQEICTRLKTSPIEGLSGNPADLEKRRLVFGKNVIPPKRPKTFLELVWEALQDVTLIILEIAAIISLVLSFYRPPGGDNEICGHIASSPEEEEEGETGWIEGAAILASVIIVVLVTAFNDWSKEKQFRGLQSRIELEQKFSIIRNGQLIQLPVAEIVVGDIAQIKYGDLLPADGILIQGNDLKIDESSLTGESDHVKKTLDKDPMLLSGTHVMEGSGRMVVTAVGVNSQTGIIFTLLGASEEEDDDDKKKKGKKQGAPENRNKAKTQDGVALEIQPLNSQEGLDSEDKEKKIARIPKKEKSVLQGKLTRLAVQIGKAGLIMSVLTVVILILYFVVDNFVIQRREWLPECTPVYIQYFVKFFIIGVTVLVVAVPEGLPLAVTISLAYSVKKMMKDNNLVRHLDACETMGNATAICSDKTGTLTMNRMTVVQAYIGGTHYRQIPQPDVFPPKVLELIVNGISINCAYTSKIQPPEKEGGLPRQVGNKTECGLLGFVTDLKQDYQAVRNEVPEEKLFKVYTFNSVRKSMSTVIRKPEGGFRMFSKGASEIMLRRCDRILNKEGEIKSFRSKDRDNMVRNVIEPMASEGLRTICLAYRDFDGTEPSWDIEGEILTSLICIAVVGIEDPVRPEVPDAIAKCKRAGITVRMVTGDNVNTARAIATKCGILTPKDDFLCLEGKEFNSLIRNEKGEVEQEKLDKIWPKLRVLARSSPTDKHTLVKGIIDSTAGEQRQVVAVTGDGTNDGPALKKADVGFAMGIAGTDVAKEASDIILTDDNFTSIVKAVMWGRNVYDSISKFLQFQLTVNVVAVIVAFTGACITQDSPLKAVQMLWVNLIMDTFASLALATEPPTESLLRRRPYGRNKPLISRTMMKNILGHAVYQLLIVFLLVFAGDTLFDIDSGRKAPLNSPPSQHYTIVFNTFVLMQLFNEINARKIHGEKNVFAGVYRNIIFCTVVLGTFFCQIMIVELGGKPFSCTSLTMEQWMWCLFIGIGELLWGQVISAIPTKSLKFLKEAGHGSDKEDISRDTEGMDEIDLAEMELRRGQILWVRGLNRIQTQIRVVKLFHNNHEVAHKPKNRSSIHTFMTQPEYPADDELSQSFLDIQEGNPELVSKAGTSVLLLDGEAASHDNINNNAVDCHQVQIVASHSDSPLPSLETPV

Results on 5 molecules are retold here after publication doi:10.1101/605378.

No constants are given. Whether binding was seen depends on the method and setting. In cells and extracts the contact can be indirect. These calls come from enrichment with a bait or labelling near it, and not all partners need be listed. Sequences can lack the tags named with a protein.

Consider “PMCA2 (mouse cortical membranes) (from UniProt Q9R0K7 1-1198)”, for which the binding result is reported as “binds”. For “PMCA1 (one of "all four members of the PMCA/ATP2B family") (from UniProt G5E829 1-1220)”, the binding entry is “binds”.

For “PMCA3 (one of "all four members of the PMCA/ATP2B family") (from UniProt Q0VF55 1-1220)”, the binding result was “binds”. Under “PMCA4 (one of "all four members of the PMCA/ATP2B family") (from UniProt Q6Q477 1-1205)” stands “binds”.

B1: contactin-1 (protein, UniProt P12960 21-1001)
chain: DFTWHRRYGHGVSEEDKGFGPIFEEQPINTIYPEESLEGKVSLNCRARASPFPVYKWRMNNGDVDLTNDRYSMVGGNLVINNPDKQKDAGVYYCLASNNYGMVRSTEATLSFGYLDPFPPEERPEVKVKEGKGMVLLCDPPYHFPDDLSYRWLLNEFPVFITMDKRRFVSQTNGNLYIANVESSDRGNYSCFVSSPSITKSVFSKFIPLIPIPERTTKPYPADIVVQFKDIYTMMGQNVTLECFALGNPVPDIRWRKVLEPMPSTAEISTSGAVLKIFNIQLEDEGLYECEAENIRGKDKHQARIYVQAFPEWVEHINDTEVDIGSDLYWPCIATGKPIPTIRWLKNGYSYHKGELRLYDVTFENAGMYQCIAENAYGSIYANAELKILALAPTFEMNPMKKKILAAKGGRVIIECKPKAAPKPKFSWSKGTEWLVNSSRILIWEDGSLEINNITRNDGGIYTCFAENNRGKANSTGTLVITNPTRIILAPINADITVGENATMQCAASFDPALDLTFVWSFNGYVIDFNKEITHIHYQRNFMLDANGELLIRNAQLKHAGRYTCTAQTIVDNSSASADLVVRGPPGPPGGLRIEDIRATSVALTWSRGSDNHSPISKYTIQTKTILSDDWKDAKTDPPIIEGNMESAKAVDLIPWMEYEFRVVATNTLGTGEPSIPSNRIKTDGAAPNVAPSDVGGGGGTNRELTITWAPLSREYHYGNNFGYIVAFKPFDGEEWKKVTVTNPDTGRYVHKDETMTPSTAFQVKVKAFNNKGDGPYSLVAVINSAQDAPSEAPTEVGVKVLSSSEISVHWKHVLEKIVESYQIRYWAGHDKEAAAHRVQVTSQEYSARLENLLPDTQYFIEVGACNSAGCGPSSDVIETFTRKAPPSQPPRIISSVRSGSRYIITWDHVVALSNESTVTGYKILYRPDGQHDGKLFSTHKHSIEVPIPRDGEYVVEVRAHSDGGDGVVSQVKISGVSTLS
On to B1, for which the binding entry is “binds”.
